Patent US20040077828A1
These are yes or no findings as the source states them, for the method shown. Some binding calls cover weakened binding; strength is not graded here. Tags and fused reporters may be left off the sequences shown.

Molecular target: T1, human sFRP-Δ3-M/H (Δ3 derivative of sFRP-1) (human)
T1 sequence: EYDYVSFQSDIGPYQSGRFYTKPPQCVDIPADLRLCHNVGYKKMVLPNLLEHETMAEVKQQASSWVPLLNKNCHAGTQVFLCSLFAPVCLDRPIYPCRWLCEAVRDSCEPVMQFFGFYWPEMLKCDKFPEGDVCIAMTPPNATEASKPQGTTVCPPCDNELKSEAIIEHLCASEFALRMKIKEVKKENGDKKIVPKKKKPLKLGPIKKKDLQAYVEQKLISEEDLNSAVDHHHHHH
Assay: ELISA with sFRP-1 deletion mutants

binding: binds
B1: A-C2/alkaline phosphatase fusion protein (peptide, not shown: large carriers)
chain: QGTLVDGRWLQL
